In PubChem BioAssay AID493014 (National Center for Advancing Translational Sciences (NCATS), 2011):
Some of the results follow. Shown are side measurements of this screen, not its main read-out; they come without a call. The list favours compounds with an active or inconclusive main result. Potencies come from curve fits of mixed quality, noted in brackets.

Assay: qHTS Assay to Find Inhibitors of Chronic Active B-Cell Receptor Signaling
Details: ABC-DLBCL IkBa-CBG/CBR reporter, luminescence ratio (green luciferase fused to IkBa over red control in TMD8 lymphoma cells), 4 h
In short: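 Cell line TMD8 (human ABC DLBCL), stably expressing tet-inducible CBG68-IkBa fusion and CBR; IMDM/0.5% FBS; cpd up to 46 uM; dox induction, 4 h, 37C/5% CO2; dual luminescence; green/red ratio; MG132 control.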

[1] = measured here: CBR red luminescence, cell number
[2] = measured here: IkBa-CBG green luminescence

Structure (SMILES)	AC50 [1]	AC50 [2]
Cc1nc(Nc2cccc(C(F)(F)F)c2)nc2c1C(=O)CC(C)C2 (configuration not stated)	0.00517 µM [rising, full curve, poor fit]	–
O=C(c1[nH]nc2c1CCc1ccccc1-2)N1CCN(Cc2ccc3c(c2)OCO3)CC1	11.2 µM [falling, single point]	–
CCOc1ccc(Cl)cc1CSc1n[nH]c(C)n1	17.8 µM [rising, single point]	–
O=C(c1cccc(S(=O)(=O)N2CCc3ccccc32)c1)N1CCCC(C(F)(F)F)C1 (configuration not stated)	6.51 µM [falling, full curve]	–
COc1cccc(Nc2ncnc3sccc23)c1	14.1 µM [falling, single point]	–
O=C1C2C3C=CC(CC3)C2C(=O)N1/N=C/c1c[nH]c2ccccc12 (configuration not stated)	2 µM [falling, partial curve, poor fit]	–
NC(=O)CSc1nnnn1-c1ccc(OC(F)(F)F)cc1	1.78 µM [rising, partial curve]	–
O=C(COC(=O)/C=C/c1cccc(Cl)c1)NC(=O)NCc1ccccc1	0.116 µM [falling, partial curve, poor fit]	–
CC(=O)Nc1ccc(S(=O)(=O)Nc2nc3n(n2)C(c2ccccc2)CC(=O)N3)cc1 (configuration not stated)	3.66 µM [falling, full curve]	2.91 µM [rising, full curve, poor fit]
O=C(CSCc1ccc(Cl)cc1Cl)Nc1ccc(O)cc1C(=O)O	10 µM [falling, partial curve, poor fit]	–
COCCn1c(=S)[nH]c2cc(C(=O)N(CCO)Cc3ccccc3)ccc2c1=O	3.55 µM [falling, partial curve, poor fit]	–
COc1c2n(C)ccc3c-2n(c(=O)c1=O)c1ccccc31	14.6 µM [rising, single point]	–
CCCCCCCCOC(=O)C(NC(=O)CCC(=O)Nc1ccc(S(N)(=O)=O)cc1)C(O)c1ccccc1 (configuration not stated)	0.82 µM [rising, full curve, poor fit]	–
O=C(Nc1ccccc1C(=O)N1CCOCC1)c1cccnc1	13 µM [rising, partial curve]	–
COc1ccc(C(=O)NCCc2ccccn2)cc1S(=O)(=O)Nc1ccc(Br)cc1	23.1 µM [rising, partial curve, poor fit]	–
O=C(NCCCO)c1ccc(CSc2nc3ccccc3c(=O)[nH]2)cc1	1.41 µM [rising, partial curve, poor fit]	–
C/C(=N\NS(=O)(=O)c1ccc(C)cc1)c1ccc(C)o1	15.8 µM [rising, partial curve, poor fit]	–
O=C(NCc1ccccc1F)C(=O)NCC(c1ccco1)S(=O)(=O)c1ccccc1 (configuration not stated)	0.631 µM [rising, full curve, poor fit]	–
N#Cc1ccsc1NC(=O)CCN1CCN(C(c2ccccc2)c2ccccc2)CC1	35.5 µM [falling, single point]	–

Structure (SMILES)	AC50 [1]	AC50 [2]
Oc1[nH]c2ccccc2c1N=Nc1cccc(Cl)c1	3.16 µM [falling, partial curve, poor fit]	–
Cc1ccc(C(=O)OCC(=O)Nc2ncc(Cl)cc2Cl)cc1NC(=O)c1ccco1	20.6 µM [rising, single point]	–
Cc1c(Cc2ccccc2)sc(NC(=O)C(C)(C)C)c1C(N)=O	15.8 µM [falling, single point]	12.6 µM [rising, partial curve, poor fit]
CC(Sc1ncnc2ccccc12)C(=O)Nc1ccc2c(c1)OCCO2 (configuration not stated)	29.1 µM [falling, single point]	25.9 µM [rising, partial curve, poor fit]
N/C(=N\OC(=O)c1cccc(F)c1)c1cccc([N+](=O)[O-])c1	2.51 µM [rising, partial curve, poor fit]	–
O=[N+]([O-])c1ccc(S(=O)(=O)c2ccccc2)nc1	11.2 µM [falling, partial curve, poor fit]	–
CCOc1ccc2[nH]c(=O)c(CN(CCN3CCCC3)C(=S)Nc3ccccc3OCC)cc2c1	31.6 µM [falling, single point]	–
O=C(Nc1ccccc1C(=O)O)c1ncn[nH]1	6.31 µM [rising, single point]	–
COC(=O)c1sccc1NC(=O)c1ccccc1[N+](=O)[O-]	9.2 µM [rising, partial curve]	–
Cc1cccc(NC(=O)CN2CCN(CC(=O)Nc3ccc(-c4ccccc4)cc3)CC2)c1C	10 µM [falling, single point]	–
CCOC(=O)c1ccc(NC(=S)Nc2ccccc2)cc1	0.517 µM [rising, partial curve, poor fit]	–
CC(=O)c1c(C)[nH]c(C(=O)OCc2ccc(Br)cc2)c1C	17.8 µM [rising, partial curve, poor fit]	–
Cc1cc(/C=N/NC(=O)c2ccsc2)c(C)n1-c1cnccn1	25.1 µM [falling, single point]	–
COc1ccccc1N1C(=O)C2C(C(=O)c3ccccc3)=NN(c3ccc(Br)cc3)C2C1=O (configuration not stated)	11.2 µM [rising, partial curve]	–
COc1ccc(NS(=O)(=O)c2cc(-c3cnc(C4CC4)o3)ccc2C)cc1	–	10 µM [falling, partial curve]
Cc1ccc(CNC(=O)CCCOc2cc(=O)n(C)c3ccccc23)o1	18.4 µM [rising, single point]	20.6 µM [falling, single point]
Cc1ccccc1N(C)C(=O)C1CCCN(c2ncnc3c2nc2n3CCCCC2)C1 (configuration not stated)	2.82 µM [rising, partial curve, poor fit]	–
O=C(c1ccc(Cl)cc1)N1CCN(S(=O)(=O)/C=C/c2ccccc2)CC1	20.6 µM [falling, partial curve, poor fit]	–
O=C(c1ccc(Cl)c([N+](=O)[O-])c1)N(Cc1ccc(Cl)cc1)C1CCS(=O)(=O)C1 (configuration not stated)	29.1 µM [falling, partial curve, poor fit]	–

Copied from the list.
`O=[N+]([O-])c1ccc(S(=O)(=O)c2ccccc2)nc1` | AC50 [1]: 11.2 µM [falling, partial curve, poor fit]
`CCCCCCCCOC(=O)C(NC(=O)CCC(=O)Nc1ccc(S(N)(=O)=O)cc1)C(O)c1ccccc1` (configuration not stated) | AC50 [1]: 0.82 µM [rising, full curve, poor fit]
